Reference: PubChem BioAssay AID1259254 (NCATS, 2017)

Aim: 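Genome-wide screen for genes that prevent DNA re-replication in cancer cells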 (primary screen)
System: human HCT116 colorectal cancer cells
Reagents: single siRNA against human genes
Timing: 3 days
Detection: 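Imaged Hoechst DNA stain sorts each cell into a cycle phase by DNA amount; per plate, G2 fraction set to 0% for non-targeting and 100% for GMNN siRNA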
Direction: G2 robust z-score: higher = more G2 cells, more excess DNA replication
Call rule: 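An siRNA counts as active if its G2 robust z-score lies at least 5 MADs above the screen median; here such calls match roughly 38% of GMNN control or more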
The deposit covers about 59,000 reagents; below is a random part of them. Of all reagents, about 1,550 (2.6%) got an active call. 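G2 share is only a proxy for re-replication; each gene was hit by three separate siRNAs, and active genes were retested.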 A number with no mark means an inactive call. The numbers tell different reagents against one gene apart. Further read-outs or replicates are left out here. Not stated in the record: the amount of reagent.

Against SLC35A2 #1, the values are G2 robust z-score 1.99.
Depletion of SLC35A2 #2 gave: G2 robust z-score 0.728.
SLC35A2 #3 scored G2 robust z-score -0.472.
Knock-down of CMTM2 #1 gave: G2 robust z-score 0.709.
Silencing of CMTM2 #2 gave: G2 robust z-score -0.637.
Depletion of CMTM2 #3 resulted in: G2 robust z-score -0.539.
Silencing of PRSS59P #1 came out at: G2 robust z-score -0.169.
Silencing of PRSS59P #2 resulted in: G2 robust z-score -0.505.
PRSS59P #3 gave G2 robust z-score -0.259.
Depletion of TIGD4 #1 resulted in: G2 robust z-score -0.0756.
TIGD4 #2 scored G2 robust z-score 4.4.
Knock-down of TIGD4 #3 gave: G2 robust z-score -0.728.
For UGT1A6 #1 the deposit lists G2 robust z-score -0.139.
For UGT1A6 #2, the values are G2 robust z-score -0.59.
With knock-down of UGT1A6 #3, the record shows G2 robust z-score -1.3.
Silencing of KCNA5 #1 came out at: G2 robust z-score 0.255.
KCNA5 #2 scored G2 robust z-score -0.583.
Silencing of KCNA5 #3 came out at: G2 robust z-score 1.71.
After knock-down of TMEM200B #1, the screen gave G2 robust z-score 1.2.
For TMEM200B #2, the entry reads G2 robust z-score 5.65 (active).
TMEM200B #3 gave G2 robust z-score -0.4.
Silencing of PLPP6 #1 resulted in: G2 robust z-score -0.66.
Knock-down of PLPP6 #2 resulted in: G2 robust z-score -0.251.
Against PLPP6 #3, the entry reads G2 robust z-score -0.319.
After knock-down of ZSCAN31 #1 the results were G2 robust z-score -1.77.
After knock-down of ZSCAN31 #2 the results were G2 robust z-score -0.419.
ZSCAN31 #3 scored G2 robust z-score 1.1.
MRPL28 #1 scored G2 robust z-score 3.88.
Knock-down of MRPL28 #2 gave: G2 robust z-score -0.895.
With knock-down of MRPL28 #3, the record shows G2 robust z-score -0.518.

3 successive entries already listed:
SLC35A2 #3 → G2 robust z-score = -0.472
CMTM2 #1 → G2 robust z-score = 0.709
CMTM2 #2 → G2 robust z-score = -0.637
